Source: PubChem BioAssay AID188 (DTP/NCI, 2004)
Shown are survivors of the treated group in tumour-free mice. Survivors were counted at the toxicity check, usually on the fifth day, unless a day is given; later deaths do not show. Schedules are NCI's codes, taken here to give the interval after Q, in days (D) or hours (H), and the number of doses after X. Some entries were tested several times; the values are given in rising order.

System: CD2F1 mice, nontumored, toxicity/survival
Experiment: NCI In Vivo Anticancer Drug Screen. Data for tumor model Nontumored Animals (Toxicity Test) in CD2F1 (CDF1) mice

Cc1[nH]c(=O)[nH]c(=O)c1N(CCF)CCCl
survivor count (dose: 0.5 mg/kg/injection, schedule: Q03HX024 (ip), vehicle: acid diluted with saline): 8 of 8
survivor count (dose: 1.0 mg/kg/injection, schedule: Q03HX016 (ip), vehicle: acid diluted with saline): 8 of 8
survivor count (dose: 1.0 mg/kg/injection, schedule: Q03HX024 (ip), vehicle: acid diluted with saline): 8 of 8
survivor count (dose: 2.0 mg/kg/injection, schedule: Q01DX009 (ip), vehicle: acid diluted with saline): 8 of 8
survivor count (dose: 2.0 mg/kg/injection, schedule: Q01DX009 (sc), vehicle: acid diluted with saline): 8 of 8
survivor count (dose: 2.0 mg/kg/injection, schedule: Q03HX008 (ip), vehicle: acid diluted with saline): 8 of 8
survivor count (dose: 2.0 mg/kg/injection, schedule: Q03HX016 (ip), vehicle: acid diluted with saline): 8 of 8
survivor count (dose: 2.0 mg/kg/injection, schedule: Q03HX024 (ip), vehicle: acid diluted with saline): 8 of 8
survivor count (dose: 2.0 mg/kg/injection, schedule: Q03HX024 (oral), vehicle: acid diluted with saline): 8 of 8
survivor count (dose: 2.0 mg/kg/injection, schedule: Q03HX024 (oral), vehicle: other): 8 of 8
survivor count (dose: 4.0 mg/kg/injection, schedule: Q01DX009 (ip), vehicle: acid diluted with saline): 8 of 8
survivor count (dose: 4.0 mg/kg/injection, schedule: Q01DX009 (sc), vehicle: acid diluted with saline): 8 of 8
survivor count (dose: 4.0 mg/kg/injection, schedule: Q03HX008 (ip), vehicle: acid diluted with saline): 8 of 8
survivor count (dose: 4.0 mg/kg/injection, schedule: Q03HX008 (oral), vehicle: other): 8 of 8
survivor count (dose: 4.0 mg/kg/injection, schedule: Q03HX016 (ip), vehicle: acid diluted with saline): 8 of 8
survivor count (dose: 4.0 mg/kg/injection, schedule: Q03HX016 (oral), vehicle: other): 8 of 8
survivor count (dose: 4.0 mg/kg/injection, schedule: Q03HX024 (ip), vehicle: acid diluted with saline): 8 of 8
survivor count (dose: 4.0 mg/kg/injection, schedule: Q03HX024 (oral), vehicle: acid diluted with saline): 8 of 8
survivor count (dose: 4.0 mg/kg/injection, schedule: Q03HX024 (oral), vehicle: other): 8 of 8
survivor count (dose: 4.0 mg/kg/injection, schedule: Q04DX003 (ip), vehicle: acid diluted with saline): 8 of 8
survivor count (dose: 8.0 mg/kg/injection, schedule: Q01DX009 (ip), vehicle: acid diluted with saline): 8 of 8
survivor count (dose: 8.0 mg/kg/injection, schedule: Q01DX009 (ip), vehicle: saline with Tween-80): 8 of 8
survivor count (dose: 8.0 mg/kg/injection, schedule: Q01DX009 (oral), vehicle: acid diluted with saline): 8 of 8
survivor count (dose: 8.0 mg/kg/injection, schedule: Q01DX009 (oral), vehicle: other): 7 of 8
survivor count (dose: 8.0 mg/kg/injection, schedule: Q01DX009 (sc), vehicle: acid diluted with saline): 8 of 8
survivor count (dose: 8.0 mg/kg/injection, schedule: Q03HX008 (ip), vehicle: acid diluted with saline): 8 of 8
survivor count (dose: 8.0 mg/kg/injection, schedule: Q03HX008 (oral), vehicle: acid diluted with saline): 8 of 8
survivor count (dose: 8.0 mg/kg/injection, schedule: Q03HX008 (oral), vehicle: other): 7 of 8
survivor count (dose: 8.0 mg/kg/injection, schedule: Q03HX016 (ip), vehicle: acid diluted with saline): 8 of 8
survivor count (dose: 8.0 mg/kg/injection, schedule: Q03HX016 (oral), vehicle: acid diluted with saline): 8 of 8
survivor count (dose: 8.0 mg/kg/injection, schedule: Q03HX016 (oral), vehicle: other): 8 of 8
survivor count (dose: 8.0 mg/kg/injection, schedule: Q03HX024 (ip), vehicle: acid diluted with saline): 8 of 8
survivor count (dose: 8.0 mg/kg/injection, schedule: Q03HX024 (oral), vehicle: acid diluted with saline): 8 of 8
survivor count (dose: 8.0 mg/kg/injection, schedule: Q03HX024 (oral), vehicle: other): 8 of 8
survivor count (dose: 8.0 mg/kg/injection, schedule: Q04DX003 (ip), vehicle: acid diluted with saline): 7 of 8
survivor count (dose: 8.0 mg/kg/injection, schedule: Q08DX002 (ip), vehicle: acid diluted with saline): 8 of 8
survivor count (dose: 16.0 mg/kg/injection, schedule: Q01DX001 (ip), vehicle: acid diluted with saline): 8 of 8
survivor count (dose: 16.0 mg/kg/injection, schedule: Q01DX001 (sc), vehicle: acid diluted with saline): 8 of 8
survivor count (dose: 16.0 mg/kg/injection, schedule: Q01DX009 (ip), vehicle: acid diluted with saline): 8 of 8
survivor count (dose: 16.0 mg/kg/injection, schedule: Q01DX009 (ip), vehicle: saline with Tween-80): 8 of 8
survivor count (dose: 16.0 mg/kg/injection, schedule: Q01DX009 (oral), vehicle: acid diluted with saline): 8 of 8
survivor count (dose: 16.0 mg/kg/injection, schedule: Q01DX009 (oral), vehicle: other): 7 of 8
survivor count (dose: 16.0 mg/kg/injection, schedule: Q01DX009 (sc), vehicle: acid diluted with saline): 8 of 8
survivor count (dose: 16.0 mg/kg/injection, schedule: Q03HX008 (ip), vehicle: acid diluted with saline): 8 of 8
survivor count (dose: 16.0 mg/kg/injection, schedule: Q03HX008 (oral), vehicle: acid diluted with saline): 8 of 8
survivor count (dose: 16.0 mg/kg/injection, schedule: Q03HX008 (oral), vehicle: other): 3 of 8
survivor count (dose: 16.0 mg/kg/injection, schedule: Q03HX016 (ip), vehicle: acid diluted with saline): 8 of 8
survivor count (dose: 16.0 mg/kg/injection, schedule: Q03HX016 (oral), vehicle: acid diluted with saline): 7 of 8
survivor count (dose: 16.0 mg/kg/injection, schedule: Q03HX016 (oral), vehicle: other): 2 of 8
survivor count (dose: 16.0 mg/kg/injection, schedule: Q03HX024 (oral), vehicle: acid diluted with saline): 7 of 8
survivor count (dose: 16.0 mg/kg/injection, schedule: Q03HX024 (oral), vehicle: other): 0 of 8
survivor count (dose: 16.0 mg/kg/injection, schedule: Q04DX003 (ip), vehicle: acid diluted with saline): 8 of 8
survivor count (dose: 16.0 mg/kg/injection, schedule: Q04DX003 (oral), vehicle: acid diluted with saline): 8 of 8
survivor count (dose: 16.0 mg/kg/injection, schedule: Q04DX003 (oral), vehicle: other): 8 of 8
survivor count (dose: 16.0 mg/kg/injection, schedule: Q08DX002 (ip), vehicle: acid diluted with saline): 8 of 8
survivor count (dose: 32.0 mg/kg/injection, schedule: Q01DX001 (ip), vehicle: acid diluted with saline): 8 of 8
survivor count (dose: 32.0 mg/kg/injection, schedule: Q01DX001 (oral), vehicle: other): 8 of 8
survivor count (dose: 32.0 mg/kg/injection, schedule: Q01DX001 (sc), vehicle: acid diluted with saline): 8 of 8
survivor count (dose: 32.0 mg/kg/injection, schedule: Q01DX009 (ip), vehicle: acid diluted with saline): 7 of 8 and 8 of 8
survivor count (dose: 32.0 mg/kg/injection, schedule: Q01DX009 (ip), vehicle: saline with Tween-80): 8 of 8
survivor count (dose: 32.0 mg/kg/injection, schedule: Q01DX009 (oral), vehicle: acid diluted with saline): 8 of 8
survivor count (dose: 32.0 mg/kg/injection, schedule: Q01DX009 (oral), vehicle: other): 7 of 8
survivor count (dose: 32.0 mg/kg/injection, schedule: Q01DX009 (sc), vehicle: acid diluted with saline): 8 of 8
survivor count (dose: 32.0 mg/kg/injection, schedule: Q03HX008 (ip), vehicle: acid diluted with saline): 8 of 8
